Assay: general procedure: solution-phase peptide synthesis; DCC/HOBt; EDC hydrochloride/HOBt
Conditions: late stage modification step, acetate

Substance	crude HPLC purity [%]	step yield
2TFA-(D)-Phe-Cys (Trt)-Tyr-(D) Trp-Lys-Val-Cys (Trt)-Trp-NH2	22	Yield=75%
Boc (D)-Phe-Cys (Acm)-Tyr-(D) Trp-Lys(Boc)-Val-OH	73	Yield=43.7%

— patent US20070111930 (published 2007)
